The record followed here is paper PMC7819943, “Rice protein-binding microarrays: a tool to detect cis-acting elements near promoter regions in rice”.

Some of the results follow.

In this assay the target is T1, OsSMF1 (Oryza sativa, UniProt Q6ZLB0 1-436).
T1 sequence: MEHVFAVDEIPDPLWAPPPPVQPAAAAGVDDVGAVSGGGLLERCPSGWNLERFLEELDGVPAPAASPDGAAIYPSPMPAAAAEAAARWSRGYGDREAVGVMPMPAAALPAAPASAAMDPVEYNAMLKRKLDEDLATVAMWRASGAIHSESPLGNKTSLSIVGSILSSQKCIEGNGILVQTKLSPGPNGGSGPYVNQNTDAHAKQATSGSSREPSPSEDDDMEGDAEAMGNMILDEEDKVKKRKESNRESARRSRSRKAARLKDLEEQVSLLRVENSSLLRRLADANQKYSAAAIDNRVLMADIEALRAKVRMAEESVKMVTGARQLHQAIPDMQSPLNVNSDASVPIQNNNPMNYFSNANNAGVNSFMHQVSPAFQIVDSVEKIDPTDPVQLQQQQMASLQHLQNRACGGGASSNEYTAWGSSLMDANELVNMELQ
In words: protein-binding microarray (RPBM); PBS, 2% BSA, 51.3 ng/ul salmon testes DNA, 50 uM zinc acetate, 200 nM TF, 25 C, 1 h; high values mean tight binding. The following applies: protein: recombinant; tags: N-terminal polyhistidine and DsRed monomer fusion (pET32a); chain copies: 2; label: CyDye5-dUTP incorporated in the synthesized complementary strand; 3' TTTTT single-stranded linker to array surface; dsDNA, one strand shown. The gist of the method:
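Binding signal here means per-feature fluorescence intensity in arbitrary units. The values were read on an Axon 4000B scanner after a custom Agilent array, double-stranded by primer extension with Cy5-dUTP, was incubated with 200 nM protein at 25 °C for 1 h in PBS with 2% BSA, salmon testes DNA and 50 µM zinc acetate, then washed. The proteins were transcription factors with an N-terminal polyhistidine tag and DsRed, expressed in E. coli BL21-CodonPlus and purified on Ni–NTA.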
With “CTTCTTCTTCCTCGCTTCCTTCCTCCACCTCCACGCGGCGCGGAGTCACCTAGTGCAG”, the binding signal is 5530 fluorescence intensity (a.u.). Regarding “GTCTGGTTTGCCAACCGTGATCATCCAGTTGGAGAGAATGCGGAGTCACCTAGTGCAG”, the binding signal was 3770 fluorescence intensity (a.u.). With “CGTGTACGCAACCTCCGCTTCATCACGCCCGTTCGTCGCGCGGAGTCACCTAGTGCAG”, the binding signal is 3440 fluorescence intensity (a.u.).

For “CGTTTCAATCTGTTGTGGTGCTTGCATGCACAAGCCACCACGGAGTCACCTAGTGCAG”, the binding signal was 3190 fluorescence intensity (a.u.).

For the sequence “GTGTGTCGATGTTCGTTGTCACGTCTACGTGGACACATGACGGAGTCACCTAGTGCAG”, the binding signal was 9960 fluorescence intensity (a.u.). For the sequence “CAAGAAGTTCTGACTGGATCAAAACCCAGAAGGTGTTCCCCGGAGTCACCTAGTGCAG”, the binding signal is 4730 fluorescence intensity (a.u.). As to “GTCCGAATACCCCATATGACACCCTATATAATACCTGACGCGGAGTCACCTAGTGCAG”, the binding signal is 3530 fluorescence intensity (a.u.). Turning to “TACAGGAACAGCAATAGCAGTAGTAAATACTAGCTCAGGCCGGAGTCACCTAGTGCAG”, the binding signal is 3380 fluorescence intensity (a.u.). Regarding “CTTTAATATGTGGACTCATGATTCTTACGTGTCTGTGACACGGAGTCACCTAGTGCAG”, the binding signal was 31500 fluorescence intensity (a.u.).

As for “ATGCCATGTCCTCGTCCTAGGTGAAACAGCCACATCATCTCGGAGTCACCTAGTGCAG”, the binding signal was 6320 fluorescence intensity (a.u.).

On to “ACAAGCGCGATATAGACCTCGACCTGTCTCTAGTGACTTGCGGAGTCACCTAGTGCAG”, for which the binding signal is 3180 fluorescence intensity (a.u.). Consider “AACCCAAGTTGCCTGGCGAAACCGCGAAACGCCGCGGATGCGGAGTCACCTAGTGCAG”, for which the binding signal is 3210 fluorescence intensity (a.u.).

In the case of “GCCACCGCCGCGGCCGCGCCACCTCACCGGCGGCGCCGGTCGGAGTCACCTAGTGCAG”, the binding signal was 4880 fluorescence intensity (a.u.).

Consider “TGGGGCCACCACCACAAGCCCACGCAGGCAGGTGGGCCCCCGGAGTCACCTAGTGCAG”, for which the binding signal is 3280 fluorescence intensity (a.u.). For the sequence “TTAAATTTTAGATACTCGTGGCATGCTTTTCAAACTGCTACGGAGTCACCTAGTGCAG”, the binding signal is 8480 fluorescence intensity (a.u.).

As to “ACCTTTTGCACTATACACAGCCACGTGGCTTGCCAGCGTGCGGAGTCACCTAGTGCAG”, the binding signal is 24700 fluorescence intensity (a.u.). The same measure for “CCTGACGCCGCGGTAGCTCAGGCAAGCGGCCTCAACCTGGCGGAGTCACCTAGTGCAG”: 36800 fluorescence intensity (a.u.); for “AAGGCTCGTATGACTCATCCTGGATGAGGCTAGCCTGGATCGGAGTCACCTAGTGCAG”: 6540 fluorescence intensity (a.u.).

In the case of “TGGCGATCGTAAGGTACAGTCTACAGACCAGTTGGGGTATCGGAGTCACCTAGTGCAG”, the binding signal is 3170 fluorescence intensity (a.u.).

Turning to “CCGCAAGTCGTGGAAGCAGCGCACGGACATGTACATGCGGCGGAGTCACCTAGTGCAG”, the binding signal is 4440 fluorescence intensity (a.u.). For “CCGTTTAGTTACACCGTCACTCGCAAATCCGATGGCGTGTCGGAGTCACCTAGTGCAG”, the binding signal is 5260 fluorescence intensity (a.u.). The same measure for “CTCTGACGTAAGATATATGTAACTCAGGAGAGACATCCTACGGAGTCACCTAGTGCAG”: 25900 fluorescence intensity (a.u.); for “AGCCCGCGCCGGAGATCTTCGAGCTCTTCGACGACGTCATCGGAGTCACCTAGTGCAG”: 4930 fluorescence intensity (a.u.); for “CGCAAGGGAGAATAGGGGTGTTGAGAGGAGGGGCGACAGGCGGAGTCACCTAGTGCAG”: 3150 fluorescence intensity (a.u.). Take “TGCCATTCGGGTTATTGGGCCGTTTGCGAAATTTGTGAAGCGGAGTCACCTAGTGCAG”: the binding signal was 28000 fluorescence intensity (a.u.). As for “GCCTCTCAATCTGCACGTCCACATCGGTTCTCGGTGCCCGCGGAGTCACCTAGTGCAG”, the binding signal was 5420 fluorescence intensity (a.u.). “AAAAGAATGGTGCACTAGTATACGTGGCTACTCCACAGTGCGGAGTCACCTAGTGCAG”: the binding signal was 5920 fluorescence intensity (a.u.). Turning to “GACTGCAGTAGTGGCGATTACGTCCACGTCACTGCACGCTCGGAGTCACCTAGTGCAG”, the binding signal is 17300 fluorescence intensity (a.u.).

Consider “TATATGAGGTGGAAGGATAGGTTTATTTATCATTAATCCTCGGAGTCACCTAGTGCAG”, for which the binding signal is 3880 fluorescence intensity (a.u.). For “CCCGCAGCTCAACCTGGCTCGCACCGCCATCCCCACGACCCGGAGTCACCTAGTGCAG”, the binding signal was 31400 fluorescence intensity (a.u.). Regarding “ATTTCCATGCTTTACGTGGATCTAATTAGATTGCTACCACCGGAGTCACCTAGTGCAG”, the binding signal was 5540 fluorescence intensity (a.u.).

As for “CCCACCGAGGCGCCGTCGCTGCCCTGTCCCACCTCACCCCCGGAGTCACCTAGTGCAG”, the binding signal was 3160 fluorescence intensity (a.u.). For “CGTCGATTAATTTCCCTGGTAAATACGAAATGTTCATGGTCGGAGTCACCTAGTGCAG”, the binding signal was 39600 fluorescence intensity (a.u.). The same measure for “ATGCATCTAAGCATATTAGCTATATACCACATCATTTTCACGGAGTCACCTAGTGCAG”: 4780 fluorescence intensity (a.u.); for “CACCGCCCCATCGATCTCCGCCCGGCCGCCACCAATCTCGCGGAGTCACCTAGTGCAG”: 3310 fluorescence intensity (a.u.); for “GCGCGTTGACGTAACCACCTCGTCCTCATCATCATCCTCTCGGAGTCACCTAGTGCAG”: 6020 fluorescence intensity (a.u.).

Take “CTTACTAACACTGATGTGTCATGCTACGAGTGCATCTAGGCGGAGTCACCTAGTGCAG”: the binding signal was 5070 fluorescence intensity (a.u.). Consider “TGGAGAGGGAAGGAGAGAGGAAGAGAGGTGGAGAGGGGAGCGGAGTCACCTAGTGCAG”, for which the binding signal was 4030 fluorescence intensity (a.u.). The same measure for “CTATCCTGGATCCATCGATGGATCATCATCAGACAGCATGCGGAGTCACCTAGTGCAG”: 3370 fluorescence intensity (a.u.). Regarding “TATTGTGATGTCTTATTGACATGGCACCATGGACACTACTCGGAGTCACCTAGTGCAG”, the binding signal was 3900 fluorescence intensity (a.u.).

“TGGCCAAGGCCCACATAGCAACGCATATGCATCATTCATGCGGAGTCACCTAGTGCAG”: the binding signal was 3220 fluorescence intensity (a.u.).

For “CTACTCTGTTGTCAACTACGTGTCAGCACTTCAAATCGCCCGGAGTCACCTAGTGCAG”, the binding signal was 10500 fluorescence intensity (a.u.).
